These are yes or no findings as the source states them, for the method shown. Binding can be weak; no strength is given. Sequences can lack the tags named with a protein.
Tests used:
[1] = target: GST/PfAtg18syn (Plasmodium falciparum) (UniProt Q8IJR6); assay: far-Western, overlay or dot blot
[2] = target: GST/PfAtg18syn (Plasmodium falciparum) (UniProt Q8IJR6); assay: ELISA

B1: GST/MDRCD (domain or fragment, UniProt Q7K6A5 1054-1419)
chain: KRGTILVDDFMKSLFTFIFTGSYAGKLMSLKGDSENAKLSFEKYYPLMIRKSNIDVRDDGGIRINKNLIKGKVDIKDVNFRYISRPNVPIYKNLSFTCDSKKTTAIVGETGSGKSTFMNLLLRFYDLKNDHIILKNDMTNFQDYQNNNNNSLVLKNVNEFSNQSGSAEDYTVFNNNGEILLDDINICDYNLRDLRNLFSIVSQEPMLFNMSIYENIKFGREDATLEDVKRVSKFAAIDEFIESLPNKYDTNVGPYGKSLSGGQKQRIAIARALLREPKILLLDEATSSLDSNSEKLIEKTIVDIKDKADKTIITIAHRIASIKRSDKIVVFNNPDRNGTFVQSHGTHDELLSAQDGIYKKYVKLAK
- binding [1]: binds
- binding [2]: binds

B2: GST/MDRID (domain or fragment, UniProt Q7K6A5 341-788)
chain: TEYMKALEATNSLYEIINRKPLVENNDDGETLPNIKKIEFKNVRFHYDTRKDVEIYKDLSFTLKEGKTYAFVGESGCGKSTILKLIERLYDPTEGDIIVNDSHNLKDINLKWWRSKIGVVSQDPLLFSNSIKNNIKYSLYSLKDLEAMENYYEENTNDTYENKNFSLISNSMTSNELLEMKKEYQTIKDSDVVDVSKKVLIHDFVSSLPDKYDTLVGSNASKLSGGQKQRISIARAIMRNPKILILDEATSSLDNKSEYLVQKTINNLKGNENRITIIIAHRLSTIRYANTIFVLSNRERSDNNNNNNNDDNNNNNNNNNNKINNEGSYIIEQGTHDSLMKNKNGIYHLMINNQKISSNKSSNNGNDNGSDNKSSAYKDSDTGNDADNMNSLSIHENENISNNRNCKNTAENEKEEKVPFFKRMFRRKKKAPNNLRIIYKEIFSYKKD
- binding [1]: no binding (tested: 2.5 µg/ml)
